Test results as given in PubChem BioAssay AID624297 (National Center for Advancing Translational Sciences (NCATS), 2012).
In all, about 340,000 compounds went through this assay and about 6,200 (1.8%) were called active. This list was built around the results that the source calls inconclusive (neither active nor inactive); the mix of calls is not that of the screen. Calls follow the shape of the dose curve; as a rule, active = well fitted activation curve with a large enough effect; inconclusive = small, poorly fitted or top-dose-only effect; inactive = no such curve, though single readings can be large or run the other way. Potencies of inconclusive entries are doubtful fits and often do not repeat.

Assay: A quantitative high throughput screen for small molecules that induce DNA re-replication in SW480 colon adenocarcinoma cells. Also: nearly all actives have a fitted effect of over 55% in size. As to re-replication activation: % of control where 0% means no effect.
Conditions: Hoechst DNA content imaging, 48 h; re-replication activation: at 46.1 µM (top of the series) unless noted
In short: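 First, 250 cells per well were seeded. Next, compound or vehicle (23 nL) was pinned in, plates sat 48 hr at 37 C. Finally Hoechst was added for 40 min before fluorescence scanning.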
Potency is read from the fitted curve at half-maximal effect.

SMILES	Potency	re-replication activation
O=C(CCl)N(c1ccccc1)C1CCS(=O)(=O)C1 (configuration not stated)	active: 16.4 µM	
CC(C)(C)c1ccc(NC(=O)NC2CCCc3ccccc32)cc1 (configuration not stated)	inconclusive: 13 µM [activator, partial curve, poor fit]	
CN1CCN(c2ccc(S(=O)(=O)N3CCOCC3)cc2NC(=O)COc2ccc(C#N)cc2)CC1		inactive: -3.74%
Cc1cccc(NC(=O)c2cc3c(s2)-c2c(C)cccc2OC3)n1	inconclusive: 23.1 µM [activator, single point]	
COC(=O)c1cc(Nc2cc(C)c3ccc(O)cc3n2)cc(C(=O)OC)c1	inconclusive: 11.6 µM [activator, partial curve, poor fit]	
CCOc1ccc(NC(=O)COc2ccc(C(=O)NC3CCCc4ccccc43)cc2OC)cc1 (configuration not stated)	inconclusive: 32.6 µM [activator, partial curve, poor fit]	
Fc1ccc(Nc2nc(N3CCOCC3)nc(N3CCOCC3)n2)cc1Cl	active: 18.4 µM	
COc1cccc(/C=N/Nc2ncnc3scc(-c4ccccc4)c23)c1O	inconclusive: 1.16 µM [activator, full curve, poor fit]	
O=C(Nc1ccc(N=Nc2ccccc2)cc1)c1ccccc1Cl	inconclusive: 0.164 µM [activator, full curve, poor fit]	
CC(C)CC(=O)NC(=S)NNC(=O)c1cccc([N+](=O)[O-])c1	inconclusive: 29.1 µM [activator, partial curve, poor fit]	
CCc1nnc(N/N=C\c2ccc(OC(C)=O)c(OC)c2)n1N	inconclusive: 29.1 µM [activator, single point]	
CCCc1ccc(NS(=O)(=O)c2c(C)oc(C)c2C(=O)OC)cc1	inconclusive: 29.1 µM [activator, single point]	
CCN(CC)Cc1c(O)ccc2occ(C(=O)c3ccccc3)c12	inconclusive: 29.1 µM [activator, single point]	
Cc1ccc(NC(=O)C2CCCN(S(=O)(=O)c3ccc4[nH]c(=O)ccc4c3)C2)c(C)c1 (configuration not stated)		inactive: 0.447%
COc1ccc(OC)c(S(=O)(=O)NCc2nc3nc(C)cc(C)n3n2)c1		inactive: 1.23%
Cc1nn(C)c(Oc2cccc(Cl)c2)c1C=O	inconclusive: 29.1 µM [activator, single point]	
CC1CCN(S(=O)(=O)c2ccc(C(=O)Nc3nnc(C4=COCCO4)o3)cc2)CC1	inconclusive: 18.4 µM [activator, single point]	
CCN1C(=O)[C@@H]2Cc3c([nH]c4ccccc34)C(c3cc(OC)c(OC)c(OC)c3)N2C1=S (some centres not stated)	inconclusive: 18.4 µM [activator, single point]	
COc1ccc(/C=N/NC(=O)CNC(=O)COc2ccccc2)cc1		inactive: -0.502%
O=c1oc2cc(O)ccc2cc1-c1ccccc1	inconclusive: 25.9 µM [activator, partial curve, poor fit]	
CCOc1ccc(Br)cc1/C(C)=N\NC1=NCCN1	inconclusive: 23.1 µM [activator, single point]	
COc1cc(NC(=O)c2ccnnc2)cc(C(=O)Nc2cccc(C(F)(F)F)c2)c1		inactive: 2.13%
COc1cccc(/C=C/c2nc(S(=O)(=O)c3ccccc3)c(N(C)C)o2)c1	inconclusive: 13 µM [activator, partial curve, poor fit]	

SMILES	Potency	re-replication activation
O=C(O)C1CSC2(c3ccc(F)cc3)CCC(=O)N12 (configuration not stated)	inconclusive: 0.0046 µM [activator, full curve, poor fit]	
COc1cc(S(=O)(=O)n2ccc(C)n2)ccc1Cl	inconclusive: 0.0046 µM [activator, full curve, poor fit]	
CC/C(=N/Nc1cccc(C)c1)c1cnnc(SC)n1	inconclusive: 35.5 µM [activator, single point]	
CC(C(=O)N1CCOCC1)N1C(=O)C2C3C=CC(C4CC34)C2C1=O (configuration not stated)		inactive: -3.32%
COC(=O)[C@H](NCc1ccc(OC)c(B(O)O)c1)C(C)C	inconclusive: 0.092 µM [activator, full curve, poor fit]	
O=C(Nc1ccc(F)cc1)N(Cc1ccco1)Cc1cc2cc3c(cc2[nH]c1=O)OCO3		inactive: 4.88%
Cn1c(=O)n(CC(=O)NCC2CCCO2)c(=O)c2c3c(sc21)CCCC3 (configuration not stated)	inconclusive: 23.1 µM [activator, single point]	
O=C(N/N=C/c1cccs1)c1ccc2ccccc2c1	inconclusive: 18.4 µM [activator, single point]	
O=C(CNCc1cccs1)Nc1cc(S(=O)(=O)N2CCCC2)ccc1Cl	inconclusive: 0.461 µM [activator, partial curve, poor fit]	
Nc1cc(=O)[nH]c(SCCSc2ccc(F)cc2)n1		inactive: -2.22%
CCOC(=O)c1ccc(N2CCN(c3cc(C)ccc3C)CC2)c(N)c1	inconclusive: 18.4 µM [activator, single point]	
Cc1ccc(C(=O)c2c3ccccc3[n+]([O-])n2[C@@H](C)C(N)=O)cc1	inconclusive: 10.3 µM [activator, single point]	
Cc1ccc(OCCCC(=O)Nc2cc(Cl)ccc2-n2cncn2)cc1		inactive: -0.138%
Cc1ccc(Nc2nc(N)nc(CSC(=S)N3CCOCC3)n2)c(C)c1		inactive: -48.4%
Cc1ccc(C(=O)N2CCSC2=S)cc1	inconclusive: 29.1 µM [activator, single point]	
CCCCc1ccc(NC(=O)CSC2=C(C#N)C(c3ccco3)C3=C(CCCC3=O)N2)cc1 (configuration not stated)	active: 20.6 µM	
O=c1[nH]c(C(F)(F)C(F)(F)C(F)(F)F)no1		inactive: -11.4%
C=C1C(=O)OC2C1CCC(C)=C1C(=O)C3OC3(C)C12 (configuration not stated)	inconclusive: 0.517 µM [activator, full curve, poor fit]	
CN(C)c1cccc(/C=C(\C#N)c2ccccc2)c1	inconclusive: 25.9 µM [activator, single point]	
COC(=O)Cn1ccc(N(C)C)c(C#N)c1=O	active: 6.51 µM	
COc1ccc(CN(C)C(=O)C(Cc2ccccc2)NC(=O)c2ccccc2)cc1F (configuration not stated)	inconclusive: 23.1 µM [activator, partial curve, poor fit]	
C=CCn1c(SCC(=O)c2ccc(NS(=O)(=O)c3ccccc3)cc2)nnc1-c1cccs1	inconclusive: 29.1 µM [activator, partial curve, poor fit]	
O=C(CSCc1c(Cl)cccc1Cl)Nc1ccc2c(c1)OCCO2	inconclusive: 20.6 µM [activator, partial curve, poor fit]	

SMILES	Potency	re-replication activation
CCOC(=O)CNC(=O)c1ccc(OCC(F)(F)F)cc1	inconclusive: 16.4 µM [activator, partial curve, poor fit]	
Cc1c(OCC(=O)NCc2cccnc2)ccc2c3c(c(=O)oc12)CCCC3	inconclusive: 29.1 µM [activator, single point]	
CN(CC1CCCN(CCc2ccc(F)cc2)C1)C(=O)CCC(N)=O (configuration not stated)		inactive: -8.29%
Cc1c2cnn(CC(=O)NCCCN3CC(C)CC(C)C3)c(=O)c2c(C)n1Cc1ccc(Cl)cc1 (configuration not stated)	inconclusive: 25.9 µM [activator, single point]	
S=C(NCCc1ccccc1)NCC1CCCO1 (configuration not stated)	inconclusive: 2.31 µM [activator, single point]	
CCCCOc1ccc(S(=O)(=O)NNC(=O)C2Cc3c(ccc4ccccc34)O2)cc1 (configuration not stated)	inconclusive: 18.4 µM [activator, single point]	
COc1ccc(NC(=O)c2ccc(CN(c3cc(Cl)ccc3C)S(=O)(=O)c3ccccc3)cc2)cc1OC		inactive: 5.32%
O=C(Nc1ccc(Br)cc1)C1C2C=CC3(O2)C1C(=O)N(CCN1CCCCC1)C3C(=O)NC1CCCCC1 (configuration not stated)	inconclusive: 16.4 µM [activator, single point]	
CCCCNc1c(-c2ccc(-c3ccc(C(C)=O)cc3)c(OC)c2)nc2cc(C)ccn12	inconclusive: 18.4 µM [activator, partial curve, poor fit]	
CCOc1cc(/C=C2\CN(CC)C/C(=C\c3ccc(O)c(OCC)c3)C2=O)ccc1O	inconclusive: 5.8 µM [activator, full curve, poor fit]	
COc1cccc(NC(=O)CN2C(=O)COc3ccc(S(=O)(=O)N4CCC(C)CC4)cc32)c1		inactive: -28.7%
O=C(COC(=O)c1cccc(-n2cnnn2)c1)Nc1c(Cl)cccc1C(F)(F)F	inconclusive: 29.1 µM [activator, partial curve, poor fit]	
CC(=O)Oc1c(-c2ccco2)oc2ccccc2c1=O	active: 16.4 µM	
CC1=CC(c2ccc(Cl)cc2)n2nc(NC(=O)CCC(=O)O)nc2N1 (configuration not stated)		inactive: 1.31%
CC(=C/c1ccccc1)/C=N/n1c(C)n[nH]c1=S		inactive: 0.57%
CCOC(=O)N1CCC(N(CCN(C)C)C(=S)Nc2cccc(C)c2)CC1		inactive: -1.43%
COc1ccc(OC)c(CNC(=O)CCc2cn(C)c3ccccc23)c1	inconclusive: 16.4 µM [activator, single point]	
O=C(CN1C(=O)c2ccccc2C1=O)OCC(=O)c1ccccc1	inconclusive: 9.2 µM [activator, partial curve, poor fit]	
CCN1CCN(c2cc(SC(C)C)nc(-c3ccc(OC)cc3)n2)CC1	inconclusive: 11.6 µM [activator, partial curve, poor fit]	
CC[C@H]1C(=O)[C@@H](Cc2ccccc2)[C@@H]2CCN3C(=O)CCC[C@H]1[C@H]23	inconclusive: 0.0073 µM [activator, full curve, poor fit]	
Nc1nonc1-n1nnc(C(=O)N/N=C/c2ccccc2Cl)c1-c1ccc2c(c1)OCO2		inactive: -6.49%

Gathered by group, the compounds so far containing an aryl thioether with sulfur outside any ring
SMILES	Potency	re-replication activation
CC/C(=N/Nc1cccc(C)c1)c1cnnc(SC)n1	inconclusive: 35.5 µM [activator, single point]	
Nc1cc(=O)[nH]c(SCCSc2ccc(F)cc2)n1		inactive: -2.22%
C=CCn1c(SCC(=O)c2ccc(NS(=O)(=O)c3ccccc3)cc2)nnc1-c1cccs1	inconclusive: 29.1 µM [activator, partial curve, poor fit]	
CCN1CCN(c2cc(SC(C)C)nc(-c3ccc(OC)cc3)n2)CC1	inconclusive: 11.6 µM [activator, partial curve, poor fit]	
